Literature values in publication PMC7395068, “The evolution of strategies to minimise the risk of human drug-induced liver injury (DILI) in drug discovery and development” (Archives of Toxicology, 2020).

Key:
rBsep = conditions: In vitro Assay; ref Dawson 2012; cited from earlier work
[1] = system: THLE-Null and THLE-3A4 cells; conditions: In vitro Assay; ref Gustafsson 2014; cited from earlier work

Question: What does the source list for `CN1Cc2c(N)cccc2C(c2ccccc2)C1` (centres unmarked) [nomifensine]?
Answer: Inhibition of rBsep cutoff<3 (rBsep): -VE; THLE-Null/3A4 [1]: -VE
